Some of the results follow. Further columns of the screen follow, without active or inactive calls.

The assay can be described thus: PubChem AID 1586. The conditions noted are these: yeast two-hybrid polyglutamine protein interaction, reporter readout; measured here: averaged growth delta OD.
Consider `O=c1cc(-c2ccccc2)oc2cc(O)c(O)cc12`, for which the signal change (36 h minus 0 h) is 0.144.

Regarding `CC(C)NCC(O)c1ccc(O)c(O)c1` (stereo unspecified), the signal change (36 h minus 0 h) was found to be 0.156.

For `C[C@]12CCC3c4ccc(OC(=O)CCC(=O)O)cc4CCC3C1CCC2=O` (stereo partly specified), the signal change (36 h minus 0 h) was 0.0735.

In turn, `COc1cc(NC(C)CCCN)c2ncccc2c1` (stereo unspecified) came in with a signal change (36 h minus 0 h) of 0.286.

In turn, `C[N+]1(C)CCCC(OC(=O)C(O)(c2ccccc2)c2ccccc2)C1` (stereo unspecified) returned a signal change (36 h minus 0 h) of 0.0791.

Compound `O=C(O)c1cc(=O)c2ccccc2o1` returned a signal change (36 h minus 0 h) of 0.133.

`O=C1c2ccccc2C(=O)C1c1ccccc1` gave a signal change (36 h minus 0 h) of 0.0583.

`NC(=O)NO` showed a signal change (36 h minus 0 h) of 0.0993.

In turn, `CC(C)(Oc1ccc(CCNC(=O)c2ccc(Cl)cc2)cc1)C(=O)O` displayed a signal change (36 h minus 0 h) of 0.153.

`CC(=O)N[C@@H](Cc1c[nH]c2ccccc12)C(=O)O` registered a signal change (36 h minus 0 h) of 0.186.

Turning to `O=C(O)c1cn(C2CC2)c2cc(N3CCNCC3)c(F)cc2c1=O`, the signal change (36 h minus 0 h) is 0.203.

The compound `NC(N)=Nc1nc(CSCC/C(N)=N\S(N)(=O)=O)cs1` registered a signal change (36 h minus 0 h) of 0.138.

As to `Cc1onc(-c2ccccc2)c1C(=O)NC1C(=O)N2[C@@H]1SC(C)(C)[C@@H]2C(=O)O` (stereo partly specified), the signal change (36 h minus 0 h) was determined as 0.177.

For the compound `NS(=O)(=O)c1cc2c(cc1Cl)NC(C(Cl)Cl)NS2(=O)=O` (stereo unspecified), the signal change (36 h minus 0 h) stood at 0.193.

`C[N+]1(C)C2CC[C@H]1CC(OC(=O)C(O)c1ccccc1)C2` (stereo partly specified) displayed a signal change (36 h minus 0 h) of 0.223.

In turn, `CCCCNc1ccc(C(=O)OCCN(C)C)cc1` gave a signal change (36 h minus 0 h) of 0.124.

As for `Nc1ccc(C(=O)O)c(O)c1`, the signal change (36 h minus 0 h) is 0.122.

On to `CCN(CC)CCOC(=O)C1(C2CCCCC2)CCCCC1`, for which the signal change (36 h minus 0 h) worked out at 0.208.

For the compound `Cn1c(=O)c2c(ncn2CCO)n(C)c1=O`, the signal change (36 h minus 0 h) is 0.142.

In the case of `CC(C)NCC(O)c1cc(O)cc(O)c1` (stereo unspecified), the signal change (36 h minus 0 h) came to 0.154.

In the case of `Nc1nc2c(c(=O)[nH]1)N(C=O)C(CNc1ccc(C(=O)N[C@@H](CCC(=O)O)C(=O)O)cc1)CN2` (stereo partly specified), the signal change (36 h minus 0 h) is 0.0346.

The values are drawn from PubChem BioAssay.
